Assay results taken from US20220033519A1 (NATIONAL RESEARCH COUNCIL OF CANADA, published 2022).
No constants are given. Whether binding was seen depends on the method and setting. Some binding calls cover weakened binding; strength is not graded here. Sequences can lack the tags named with a protein.

T1: soluble and secreted FUT8 (sFUT8) enzyme (aa 87-575; UniProtKB #Q9BYC5) with C-terminal polyhistidine tag (UniProt Q9BYC5)
T1 sequence: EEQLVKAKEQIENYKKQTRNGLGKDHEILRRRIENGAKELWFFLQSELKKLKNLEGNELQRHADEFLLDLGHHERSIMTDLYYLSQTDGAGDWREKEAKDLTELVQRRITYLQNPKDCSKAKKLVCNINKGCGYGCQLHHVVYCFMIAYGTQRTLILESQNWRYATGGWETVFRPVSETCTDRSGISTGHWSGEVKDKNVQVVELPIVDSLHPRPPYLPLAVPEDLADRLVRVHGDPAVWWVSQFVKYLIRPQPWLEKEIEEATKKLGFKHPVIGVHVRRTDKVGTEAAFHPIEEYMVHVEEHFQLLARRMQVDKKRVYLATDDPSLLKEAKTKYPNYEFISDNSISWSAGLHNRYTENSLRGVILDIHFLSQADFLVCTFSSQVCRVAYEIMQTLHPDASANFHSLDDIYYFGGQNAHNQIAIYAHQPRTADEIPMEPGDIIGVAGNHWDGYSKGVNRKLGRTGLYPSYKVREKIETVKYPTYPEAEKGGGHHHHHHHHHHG


Biological target: T1, soluble and secreted FUT8 (sFUT8) enzyme
Assay: ELISA, sFUT8 coated on the plate

binding | Binder
binds | anti-FUT8 monoclonal antibody 1H9 (hybridoma) (antibody, V domains shown) VH: EVQLQQSGPELVKPGASVKMSCKASGYIFTDYVMHWVKQSNGKSLEWIGYINPYNDYSNYNQKFKGKATLTVDKSSNTAYMQLNSLTSEDSAVYFCARSGDVWLAYWGQGTLVTISA VL: DIVLTQSPASLAISLGQRATISCRASKSVSTSGYSYMHWYQQKPGQPPRLLIYLASNLESGVPARFSGSGSGTDFTLNIHPVEEEDGATYYCQHSRELPWTFGGGT
binds | anti-FUT8 monoclonal antibody 1D2 (hybridoma) (antibody, V domains shown) VH: QVQLKESGPGLVAPSQSLSITCTVSGFSLTGYGVNWVRQPPGKGLEWLGMIWGDGSTDYNSALKSRLSISKDNSKSQVFLKMNSLQTDDTASYYCARDFYDGYLYAMDYWGQGTSVTVSSAS VL: DIVMTQSQKFMSTSLGDRVSVTCKASQNVGSYVAWYQQKPGQSPKALIYSASYRYSGVPDRFAGSGSGTDFTLTISNVQSEDLAEYFCQQYYTYPYTFGGGTWSTRLASWAFRSL
